Data as given in publication doi:10.1101/2020.07.15.204800 (bioRxiv, 2020).
These are yes or no findings as the source states them, for the method shown. In cells and extracts the contact can be indirect. Some results given as binding are weak or reduced against the parent protein; the word gives no strength. Tags and fused reporters may be left off the sequences shown.

Legend:
Test in all cases: co-IP
[1] = target: T1, WDR41-HA with complete deletion of the 7CD loop (residues 354-393) (UniProt Q9HAD4)
T1 sequence: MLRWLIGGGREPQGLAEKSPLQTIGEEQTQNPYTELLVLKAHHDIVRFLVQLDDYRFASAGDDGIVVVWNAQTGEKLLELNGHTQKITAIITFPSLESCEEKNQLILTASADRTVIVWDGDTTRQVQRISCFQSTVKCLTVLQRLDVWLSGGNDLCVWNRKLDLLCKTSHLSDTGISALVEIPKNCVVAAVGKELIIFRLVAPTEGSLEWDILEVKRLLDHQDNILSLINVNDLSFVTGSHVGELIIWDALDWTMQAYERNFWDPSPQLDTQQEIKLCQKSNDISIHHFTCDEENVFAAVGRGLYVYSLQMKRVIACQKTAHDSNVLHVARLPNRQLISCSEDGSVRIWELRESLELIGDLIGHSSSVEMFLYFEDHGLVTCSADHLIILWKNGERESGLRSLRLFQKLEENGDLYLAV

[2] = target: T2, WDR41-HA with deletion of the first linker sub-region of the 7CD loop (354-360) (UniProt Q9HAD4)
T2 sequence: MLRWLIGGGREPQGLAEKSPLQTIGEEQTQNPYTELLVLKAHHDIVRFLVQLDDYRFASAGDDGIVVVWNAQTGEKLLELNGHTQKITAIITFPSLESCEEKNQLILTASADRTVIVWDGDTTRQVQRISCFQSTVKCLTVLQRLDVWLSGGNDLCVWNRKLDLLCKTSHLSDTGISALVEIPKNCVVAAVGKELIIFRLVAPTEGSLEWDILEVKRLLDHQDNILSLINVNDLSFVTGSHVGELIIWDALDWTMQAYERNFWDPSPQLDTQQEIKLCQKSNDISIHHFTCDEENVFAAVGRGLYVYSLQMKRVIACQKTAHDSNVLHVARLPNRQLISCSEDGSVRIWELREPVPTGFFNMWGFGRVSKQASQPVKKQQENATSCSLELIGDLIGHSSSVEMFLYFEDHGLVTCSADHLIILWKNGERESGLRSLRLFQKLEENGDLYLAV

[3] = target: T3, WDR41-HA with deletion of the second linker sub-region of the 7CD loop (374-393) (UniProt Q9HAD4)
T3 sequence: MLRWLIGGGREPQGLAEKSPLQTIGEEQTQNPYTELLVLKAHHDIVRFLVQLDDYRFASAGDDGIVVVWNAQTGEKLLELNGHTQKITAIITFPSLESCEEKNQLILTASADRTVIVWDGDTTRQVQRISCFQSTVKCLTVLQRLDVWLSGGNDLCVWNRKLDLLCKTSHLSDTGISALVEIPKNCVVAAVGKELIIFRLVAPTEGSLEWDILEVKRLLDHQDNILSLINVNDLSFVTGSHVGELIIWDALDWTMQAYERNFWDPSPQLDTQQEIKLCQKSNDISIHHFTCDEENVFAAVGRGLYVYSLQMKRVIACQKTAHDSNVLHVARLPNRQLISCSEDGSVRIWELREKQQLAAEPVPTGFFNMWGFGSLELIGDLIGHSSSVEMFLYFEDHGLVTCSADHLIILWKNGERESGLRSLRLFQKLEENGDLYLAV

[4] = target: T4, WDR41-HA with deletion of the turn sub-region of the 7CD loop (361-373) (UniProt Q9HAD4)
T4 sequence: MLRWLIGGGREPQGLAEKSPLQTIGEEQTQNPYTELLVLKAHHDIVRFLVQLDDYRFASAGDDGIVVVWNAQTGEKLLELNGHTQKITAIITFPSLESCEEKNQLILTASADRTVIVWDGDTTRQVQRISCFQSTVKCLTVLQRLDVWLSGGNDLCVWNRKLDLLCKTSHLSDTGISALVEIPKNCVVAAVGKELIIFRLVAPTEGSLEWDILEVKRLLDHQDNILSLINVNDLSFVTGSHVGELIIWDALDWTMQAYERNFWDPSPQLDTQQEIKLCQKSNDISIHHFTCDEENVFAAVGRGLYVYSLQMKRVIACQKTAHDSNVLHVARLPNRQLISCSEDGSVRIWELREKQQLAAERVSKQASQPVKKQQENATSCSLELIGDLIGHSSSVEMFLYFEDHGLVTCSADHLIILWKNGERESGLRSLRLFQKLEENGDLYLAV

[5] = target: T5, WDR41-HA with the 7CD loop (residues 354-393) replaced by the flexible linker GGSGGGSG (UniProt Q9HAD4)
T5 sequence: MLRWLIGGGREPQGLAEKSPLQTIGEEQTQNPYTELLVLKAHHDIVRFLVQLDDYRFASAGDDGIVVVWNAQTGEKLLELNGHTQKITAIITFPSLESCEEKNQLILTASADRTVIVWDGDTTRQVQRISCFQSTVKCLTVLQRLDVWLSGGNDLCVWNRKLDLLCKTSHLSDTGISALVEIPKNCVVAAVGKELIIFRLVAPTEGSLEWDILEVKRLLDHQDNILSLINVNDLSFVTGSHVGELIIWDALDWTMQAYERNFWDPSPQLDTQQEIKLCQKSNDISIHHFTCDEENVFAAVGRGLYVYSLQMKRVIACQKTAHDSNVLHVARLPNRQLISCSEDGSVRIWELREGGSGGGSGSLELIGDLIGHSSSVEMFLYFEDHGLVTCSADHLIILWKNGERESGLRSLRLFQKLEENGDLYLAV

[6] = target: T6, WDR41-HA wild type, Q9HAD4; conditions: remark: other sources report otherwise
T6 chain: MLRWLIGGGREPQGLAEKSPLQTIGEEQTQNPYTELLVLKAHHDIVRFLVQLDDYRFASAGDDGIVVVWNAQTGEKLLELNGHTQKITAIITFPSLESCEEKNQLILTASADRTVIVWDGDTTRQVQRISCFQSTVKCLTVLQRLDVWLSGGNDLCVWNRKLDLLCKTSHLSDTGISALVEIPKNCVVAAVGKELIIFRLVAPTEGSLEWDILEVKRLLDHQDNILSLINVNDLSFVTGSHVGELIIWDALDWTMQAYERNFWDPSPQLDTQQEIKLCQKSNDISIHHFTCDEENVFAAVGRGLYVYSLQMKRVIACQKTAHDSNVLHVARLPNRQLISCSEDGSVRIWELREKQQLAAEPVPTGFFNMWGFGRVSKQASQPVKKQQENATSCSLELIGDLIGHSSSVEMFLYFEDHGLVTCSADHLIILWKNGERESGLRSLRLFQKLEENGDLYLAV

[7] = target: T7, GFP-WDR41-PIP (WDR41 PQLC2-interacting peptide, 364-373, as a GFP fusion)
T7 sequence: TGFFNMWGFG

B1: C9orf72 (protein, UniProt Q96LT7 1-481)
chain: MSTLCPPPSPAVAKTEIALSGKSPLLAATFAYWDNILGPRVRHIWAPKTEQVLLSDGEITFLANHTLNGEILRNAESGAIDVKFFVLSEKGVIIVSLIFDGNWNGDRSTYGLSIILPQTELSFYLPLHRVCVDRLTHIIRKGRIWMHKERQENVQKIILEGTERMEDQGQSIIPMLTGEVIPVMELLSSMKSHSVPEEIDIADTVLNDDDIGDSCHEGFLLNAISSHLQTCGCSVVVGSSAEKVNKIVRTLCLFLTPAERKCSRLCEAESSFKYESGLFVQGLLKDSTGSFVLPFRQVMYAPYPTTHIDVDVNTVKQMPPCHEHIYNQRRYMRSELTAFWRATSEEDMAQDTIIYTDESFTPDLNIFQDVLHRDTLVKAFLDQVFQLKPGLSLRSTFLAQFLLVLHRKALTLIKYIEDDTQKGKKPFKSLRNLKIDLDLTAEGDLNIIMALAEKIKPGLHSFIFGRPFYTSVQERDVLMTF
- binding [1]: binds
- binding [2]: binds
- binding [3]: binds
- binding [4]: binds
- binding [5]: binds

B2: C9orf72, Q96LT7 1-481 (protein)
chain: MSTLCPPPSPAVAKTEIALSGKSPLLAATFAYWDNILGPRVRHIWAPKTEQVLLSDGEITFLANHTLNGEILRNAESGAIDVKFFVLSEKGVIIVSLIFDGNWNGDRSTYGLSIILPQTELSFYLPLHRVCVDRLTHIIRKGRIWMHKERQENVQKIILEGTERMEDQGQSIIPMLTGEVIPVMELLSSMKSHSVPEEIDIADTVLNDDDIGDSCHEGFLLNAISSHLQTCGCSVVVGSSAEKVNKIVRTLCLFLTPAERKCSRLCEAESSFKYESGLFVQGLLKDSTGSFVLPFRQVMYAPYPTTHIDVDVNTVKQMPPCHEHIYNQRRYMRSELTAFWRATSEEDMAQDTIIYTDESFTPDLNIFQDVLHRDTLVKAFLDQVFQLKPGLSLRSTFLAQFLLVLHRKALTLIKYIEDDTQKGKKPFKSLRNLKIDLDLTAEGDLNIIMALAEKIKPGLHSFIFGRPFYTSVQERDVLMTF
- binding [6]: binds

B3: PQLC2-FLAG L127/8A-L288/9A (protein, UniProt Q6ZP29 1-291)
chain: MVWKKLGSRNFSSCPSGSIQWIWDVLGECAQDGWDEASVGLGLISILCFAASTFPQFIKAYKTGNMDQALSLWFLLGWIGGDSCNLIGSFLADQLPLQTYTAVYYVLADLVMLTLYFYYKFRTRPSAASAPINSVLLFLMGMACATPLLSAAGPVAAPREAFRGRALLSVESGSKPFTRQEVIGFVIGSISSVLYLLSRLPQIRTNFLRKSTQGISYSLFALVMLGNTLYGLSVLLKNPEEGQSEGSYLLHHLPWLVGSLGVLLLDTIISIQFLVYRRSTAASELEPAAPS
- binding [7]: binds

B4: PQLC2-FLAG P55L-P201L (protein, UniProt Q6ZP29 1-291)
chain: MVWKKLGSRNFSSCPSGSIQWIWDVLGECAQDGWDEASVGLGLISILCFAASTFLQFIKAYKTGNMDQALSLWFLLGWIGGDSCNLIGSFLADQLPLQTYTAVYYVLADLVMLTLYFYYKFRTRPSLLSAPINSVLLFLMGMACATPLLSAAGPVAAPREAFRGRALLSVESGSKPFTRQEVIGFVIGSISSVLYLLSRLLQIRTNFLRKSTQGISYSLFALVMLGNTLYGLSVLLKNPEEGQSEGSYLLHHLPWLVGSLGVLLLDTIISIQFLVYRRSTAASELEPLLPS
- binding [7]: no binding
